Measured values as given in paper PMC5938709.
These are yes or no findings as the source states them, for the method shown. Binding seen in cells or lysates may run through a third protein. Some entries that bind do so weakly or less than the wild type.

Amino acid sequences for entries named in this document (tags omitted).
UniProt Q15554: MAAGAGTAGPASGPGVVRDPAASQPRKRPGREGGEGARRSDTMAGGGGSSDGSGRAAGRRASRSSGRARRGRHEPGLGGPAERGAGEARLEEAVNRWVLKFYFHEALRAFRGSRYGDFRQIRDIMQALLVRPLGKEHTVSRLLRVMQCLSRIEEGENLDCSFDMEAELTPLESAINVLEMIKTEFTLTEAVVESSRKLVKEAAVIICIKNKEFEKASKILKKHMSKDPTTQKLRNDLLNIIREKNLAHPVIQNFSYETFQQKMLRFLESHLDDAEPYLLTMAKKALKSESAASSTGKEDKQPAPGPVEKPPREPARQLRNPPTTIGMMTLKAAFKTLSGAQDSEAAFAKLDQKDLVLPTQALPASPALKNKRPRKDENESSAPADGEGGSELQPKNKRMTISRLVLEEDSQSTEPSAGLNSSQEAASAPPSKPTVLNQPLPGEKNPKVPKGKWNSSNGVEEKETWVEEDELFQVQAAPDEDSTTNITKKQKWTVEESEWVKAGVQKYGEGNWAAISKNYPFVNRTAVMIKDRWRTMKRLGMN

Target: Telomeric repeat-binding factor 2 (TRF2), endogenous (human (endogenous in HEK293T)) (UniProt Q15554)
Test: co-IP; endogenous proteins in HEK293T lysate (IP lysate buffer); anti-TRF2 or anti-NOLC1 antibody overnight at 4 °C, protein-G Sepharose beads, four washes, western blot

binding: binds
B1: Nucleolar and coiled-body phosphoprotein 1 (NOLC1), endogenous (protein, UniProt Q14978 1-699)
chain: MADAGIRRVVPSDLYPLVLGFLRDNQLSEVANKFAKATGATQQDANASSLLDIYSFWLKSAKVPERKLQANGPVAKKAKKKASSSDSEDSSEEEEEVQGPPAKKAAVPAKRVGLPPGKAAAKASESSSSEESSDDDDEEDQKKQPVQKGVKPQAKAAKAPPKKAKSSDSDSDSSSEDEPPKNQKPKITPVTVKAQTKAPPKPARAAPKIANGKAASSSSSSSSSSSSDDSEEEKAAATPKKTVPKKQVVAKAPVKAATTPTRKSSSSEDSSSDEEEEQKKPMKNKPGPYSSVPPPSAPPPKKSLGTQPPKKAVEKQQPVESSEDSSDESDSSSEEEKKPPTKAVVSKATTKPPPAKKAAESSSDSSDSDSSEDDEAPSKPAGTTKNSSNKPAVTTKSPAVKPAAAPKQPVGGGQKLLTRKADSSSSEEESSSSEEEKTKKMVATTKPKATAKAALSLPAKQAPQGSRDSSSDSDSSSSEEEEEKTSKSAVKKKPQKVAGGAAPSKPASAKKGKAESSNSSSSDDSSEEEEEKLKGKGSPRPQAPKANGTSALTAQNGKAAKNSEEEEEEKKKAAVVVSKSGSLKKRKQNEAAKEAETPQAKKIKLQTPNTFPKRKKGEKRASSPFRRVREEEIEVDSRVADNSFDAKRGAAGDWGERANQVLKFTKGKSFRHEKTKKKRGSYRGGSISVQVNSIKFDSE
